Protein sequences, listed by entry. Tags and fused reporters are not part of them.
UniProt Q9UI95, whole entry: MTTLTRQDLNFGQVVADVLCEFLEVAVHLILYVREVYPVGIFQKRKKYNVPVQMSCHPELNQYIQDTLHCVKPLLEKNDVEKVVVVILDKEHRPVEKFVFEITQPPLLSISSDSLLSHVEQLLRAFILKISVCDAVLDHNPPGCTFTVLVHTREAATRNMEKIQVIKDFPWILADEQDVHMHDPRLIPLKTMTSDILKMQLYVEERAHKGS

According to publication doi:10.1101/2022.06.09.495453:

Target: REV7 (human) (UniProt Q9UI95)
Assay: fluorescence anisotropy
Details: 20 uM protein; residues 1-211

Q: Does “AGTGCCAGTGCC [ssDNA non-telomeric 12-mer]” bind?
A: no binding

No signal at the amounts used counts as a negative. At least one verdict was read from the data and is not stated in words by the source.
